Binding data for three molecules are collected here from paper PMC3475689, “Leishmania donovani Argininosuccinate Synthase Is an Active Enzyme Associated with Parasite Pathogenesis” (PLoS Neglected Tropical Diseases, 2012).

No constants are given. Whether binding was seen depends on the method and setting. Binding seen in cells or lysates may run through a third protein. Binding can be weak; no strength is given.

The target of test [1] is T1, LdPEX5, endogenous peroxin 5 of Leishmania donovani (Leishmania donovani (endogenous in Ld1S2D parasites)).
T1 sequence: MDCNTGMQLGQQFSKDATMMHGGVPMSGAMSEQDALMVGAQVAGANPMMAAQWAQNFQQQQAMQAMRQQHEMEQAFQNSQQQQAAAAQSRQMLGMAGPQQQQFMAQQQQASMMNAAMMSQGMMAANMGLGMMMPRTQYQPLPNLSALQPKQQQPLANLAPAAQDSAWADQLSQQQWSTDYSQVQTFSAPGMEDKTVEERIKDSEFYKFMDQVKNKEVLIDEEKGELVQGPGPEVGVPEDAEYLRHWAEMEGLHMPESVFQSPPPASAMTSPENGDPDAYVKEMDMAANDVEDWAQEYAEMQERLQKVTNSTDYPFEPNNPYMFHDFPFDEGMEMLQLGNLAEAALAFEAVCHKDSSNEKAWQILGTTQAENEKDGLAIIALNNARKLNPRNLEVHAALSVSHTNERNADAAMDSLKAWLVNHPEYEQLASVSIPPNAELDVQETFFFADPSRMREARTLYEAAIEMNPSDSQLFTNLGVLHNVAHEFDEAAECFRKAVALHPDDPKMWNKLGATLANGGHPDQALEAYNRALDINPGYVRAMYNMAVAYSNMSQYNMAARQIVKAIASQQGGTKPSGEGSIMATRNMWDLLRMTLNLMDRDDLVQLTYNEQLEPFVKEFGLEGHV
As to the kind of experiment: co-IP; immunoprecipitation with anti-LdPEX5 antibody (preimmune sera as control) from lysates of Ld1S2D axenic amastigotes or of V5His-LdASS^WT over expressing parasites; blot with anti-LdASS.

The target in test [2] is V5His-LdASS^WT over expressed in Leishmania donovani parasites (Leishmania donovani). As to the kind of experiment: pull-down; nickel agarose pull-down from lysate of V5His-LdASS^WT over expressing parasites; blot with anti-LdPEX5 or anti-LdASS.

For “V5His-LdASS^WT over expressed in Leishmania donovani parasites (enzyme)”, in test [1], the binding entry was “binds”.

On to “LdASS, endogenous Leishmania donovani argininosuccinate synthase (enzyme)”, for which, in test [1], the binding entry is on record as “binds”.

B1: LdPEX5, endogenous peroxin 5 of Leishmania donovani (receptor, UniProt A0A3S7X906 1-625)
chain: T1 sequence
As for B1, the binding entry in test [2] is on record as “binds”.
